# PubChem BioAssay AID743454 – Peter MacCallum Cancer Centre, 2014
# Aim: 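Knock-downs lowering viability or raising caspase 3/7 activity in vorinostat-treated resistant cells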 (primary screen)
# Cells: human HCT116-VR colon cancer cells, selected for vorinostat resistance
# Reagents: siRNA pool against human genes, 40 nM siRNA pool
# Time to read-out: vorinostat for 24 h, read-out about 72 h after transfection
# Treatment: vorinostat at 2.5 µM final
# Detection: 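Two measures, CellTiter-Fluor viability and luminescent caspase 3/7 activity, each as fold change against same-plate mock wells, mean of duplicates, then screen-wide robust z-score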
# Scale: viability robust z-score: higher = more viable cells than screen typical; caspase robust z-score: higher = more caspase 3/7 activity than screen typical
# Rule for the call: 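Hits are knock-downs in viability class RV1/RV2 or caspase class CA1/CA2, excluding ones that killed cells in the no-drug cell-count arm; hits then retested with single siRNAs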
# In all, the deposit lists about 18,000 reagents; this is an unselected part. 450 of them (2.5%) count as active. 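Single biological run; no consistent viability z cut-off exists, so the class columns, not z-scores, define the calls.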
The opening 5 entries, ahead of the listing:
Target gene,viability hit class,caspase hit class,viability robust z-score,caspase robust z-score,Outcome
ATP6V1E2 (ATPase H+ transporting V1 subunit E2),no change,no change,1.26,-0.72,inactive
ARL6 (ARF like GTPase 6),no change,no change,-0.08,-0.74,inactive
GSTM2 (glutathione S-transferase mu 2),no change,no change,-0.78,-0.52,inactive
XIAP (X-linked inhibitor of apoptosis),no change,no change,0.53,-0.18,inactive
IFT25 (intraflagellar transport 25),no change,no change,1.15,-0.52,inactive

Main list, repeating the preview:
Target gene,viability hit class,caspase hit class,viability robust z-score,caspase robust z-score,Outcome
ATP6V1E2 (ATPase H+ transporting V1 subunit E2),no change,no change,1.26,-0.72,inactive
ARL6 (ARF like GTPase 6),no change,no change,-0.08,-0.74,inactive
GSTM2 (glutathione S-transferase mu 2),no change,no change,-0.78,-0.52,inactive
XIAP (X-linked inhibitor of apoptosis),no change,no change,0.53,-0.18,inactive
IFT25 (intraflagellar transport 25),no change,no change,1.15,-0.52,inactive
PFDN5 (prefoldin subunit 5),no change,no change,0.48,0.24,inactive
MAGEC3 (MAGE family member C3),no change,no change,-1.58,0.13,inactive
ARHGEF37 (Rho guanine nucleotide exchange factor 37),no change,no change,0.8,0.36,inactive
DNM1 (dynamin 1),no change,no change,-0.28,1.44,inactive
MMP10 (matrix metallopeptidase 10),no change,no change,-0.36,1.63,inactive
MYH8 (myosin heavy chain 8),no change,no change,-0.52,-0.98,inactive
SNX8 (sorting nexin 8),no change,no change,-0.27,1.08,inactive
DYNC1H1 (dynein cytoplasmic 1 heavy chain 1),no change,no change,0,-0.32,inactive
C6orf47 (chromosome 6 open reading frame 47),no change,no change,-0.19,1.71,inactive
NFS1 (NFS1 cysteine desulfurase),no change,no change,0.26,-0.24,inactive
ADAM33 (ADAM metallopeptidase domain 33),no change,no change,-1.75,0.16,inactive
ANKRD6 (ankyrin repeat domain 6),no change,no change,0.28,-0.46,inactive
SHC3 (SHC adaptor protein 3),no change,no change,-0.77,-0.24,inactive
DIP2C (DIP2 acetate--CoA ligase C (putative)),no change,no change,2.13,-0.21,inactive
PPIL2 (peptidylprolyl isomerase like 2),RV2 (reduced viability),no change,-3.38,4.67,active
ZNF396 (zinc finger protein 396),no change,no change,-0.72,-0.92,inactive
ZIC1 (Zic family zinc finger 1),no change,no change,-0.4,0.74,inactive
ABTB2 (ankyrin repeat and BTB domain containing 2),no change,no change,1,1.26,inactive
ZNF747 (zinc finger protein 747),no change,no change,-1.08,3.26,inactive
CAMKV (CaM kinase like vesicle associated),no change,no change,-1.02,0.64,inactive
STXBP1 (syntaxin binding protein 1),no change,no change,0.59,0.12,inactive
MCEE (methylmalonyl-CoA epimerase),no change,no change,1.35,-0.92,inactive
SVIL (supervillin),no change,no change,-1.29,0.34,inactive
ERICH1 (glutamate rich 1),no change,no change,-0.28,-0.91,inactive
COX4I2 (cytochrome c oxidase subunit 4I2),no change,no change,-0.52,3.96,inactive
ZC4H2 (zinc finger C4H2-type containing),no change,no change,-0.06,-0.38,inactive
B3GNT7,no change,no change,-0.36,0.02,inactive
UTP4 (UTP4 small subunit processome component),no change,no change,-1.64,0.3,inactive
APOBEC1 (apolipoprotein B mRNA editing enzyme catalytic subunit 1),no change,no change,0.7,0.28,inactive
CLK1 (CDC like kinase 1),no change,no change,0.12,-1.11,inactive
HOXA7 (homeobox A7),no change,no change,1.54,-0.52,inactive
MXD4 (MAX dimerization protein 4),no change,no change,0.02,-0.18,inactive
SMAD9 (SMAD family member 9),no change,no change,0.98,-0.08,inactive
FBXL7 (F-box and leucine rich repeat protein 7),no change,no change,0.66,-0.79,inactive
FZD5 (frizzled class receptor 5),no change,no change,0.42,0.5,inactive
OR4N5 (olfactory receptor family 4 subfamily N member 5),no change,no change,0.22,0.09,inactive
KRT76 (keratin 76),no change,no change,-0.71,-0.23,inactive
PDE11A (phosphodiesterase 11A),no change,no change,-0.1,-0.08,inactive
ADGRB2 (adhesion G protein-coupled receptor B2),no change,no change,-0.14,-0.5,inactive
SASS6 (SAS-6 centriolar assembly protein),no change,no change,1.64,0.16,inactive
CHRNB1 (cholinergic receptor nicotinic beta 1 subunit),no change,no change,0.76,0.18,inactive
TMEM45B (transmembrane protein 45B),no change,no change,-0.75,-0.69,inactive
F13B (coagulation factor XIII B chain),no change,no change,-0.1,1.26,inactive
"DDAH2 (DDAH family member 2, ADMA-independent)",no change,no change,-0.52,1.8,inactive
EFEMP1 (EGF-like fibulin extracellular matrix protein 1),no change,no change,0.43,-0.92,inactive
SLC7A3,no change,no change,0.34,-0.42,inactive
SPNS3,no change,no change,-0.06,1.2,inactive
INSR (insulin receptor),no change,no change,-0.34,-0.24,inactive
CDIP1 (cell death inducing p53 target 1),no change,no change,-0.57,-0.44,inactive
PAIP1 (poly(A) binding protein interacting protein 1),no change,no change,0.82,-0.78,inactive
ARHGAP42 (Rho GTPase activating protein 42),no change,no change,-0.78,0.64,inactive
TGFBR1 (transforming growth factor beta receptor 1),no change,no change,1.48,0.62,inactive
